doi:10.1101/2025.05.28.656678
Results are given in words; binding and its absence hold for the method and conditions named. Binding seen in cells or lysates may run through a third protein. Binding calls can cover weak binding; strength is not graded here.

Target: MAP-free, paclitaxel-stabilized microtubules
Test: co-sedimentation

| Binder | binding |
| --- | --- |
| DNAAF1 (protein, UniProt Q9D2H9 1-634) MHPEVSEPPVDSVAEPSLEESAGDHGDAGPGIRKEEISETKETCAGPCTTSCPSQQQPSGDNGSEGFCTHSRDDREDRGPRMTKQFLQKLCKQHKLYVTPALNDTLYLHFKGFDRIENLEEYTGLRCLWLECNGIQRIENLQAQSELRCLFLQVNLLHKIENLEPLQKLDALNLSNNYIKTIENLSCLPVLNTLQMAHNRLETVADIEHLRECLRLCVLDLSHNALSDPEILSVLESMPCLRVLNLMGNPVTKHIPNYRRTVTVRLKHLTYLDDRPVFPKDRACAEAWARGGYAAEKEERRQWESREHKKITDSLEALAMIKRRAEERKKARDRGETPLPDSEGSIPTSPEAEEKQPMGEIQKKMELFVEESFEAKDELFPETPGGEKELHVVVVNGAVENPDLSGSLAHNQTPVVVTPEESTSPVAATDGARTEDIEAVAVEIKERLFIDDLPDLEDAEGTDVSVEDQIKETDIPRIQAISSLSDDSDPELDELSLSTSEATPTGATGALSHIFAISKGPSTAATVPFTDICKPIATTDLESQGQDCGAAASRPLIQELNDEPAEEAANQPLPPQTCASDPALAHPSEDGDSDSQLPAATLLGDGAEDEAESSVHPKEPSTRVGLEDIEFGLD | binds |
| KIF15 (protein, UniProt Q6P9L6 1-1387) MAPGCKSELRNVTNSHSNQPSNEGDAIKVFVRIRPAEEGARSADGEQSFCLSVLSQTTLRLHSNPDPKTFVFDYVAGMDTTQESVFSTVAKSIVESCMSGYNGTIFAYGQTGSGKTFTMMGPSDSDNFSHNLRGIIPRSFEYLFSLIDREKEKAGAGKSFLCKCSFIEVYNEQIYDLLDSASVGLYLREHIKKGVFVVGAVEQAVTSAAETYQVLSRGWRNRRVASTSMNRESSRSHAVFTITIESMEKSSETVNIRTSLLNLVDLAGSERQKDTHAEGMRLKEAGNINRSLSCLGQVITALVDVGNGKQRHICYRDSKLTFLLRDSLGGNAKTAIIANVHPGSRCFGETLSTLNFAQRAKLIKNKAVVNEDTQGNVSQLQAEVKRLKEQLSQFTSGQITPESLLARDKEKTNYIEYFLEAMLFFKKSEQEKKSLIEKITQLEDLTLKKEKFIQSNKMIVKFREDQIMRLERLHKEGRGSFLPEEQDRLLSELRDEVQTLREHVEHHPRLAKYAMENHSLREENRRLKLLAPVKRAHEIDAQSIARLEKAFAEVSSTETNDKGLQGFSPKALKESSFFTNTEKLKAQLLQIQTELNNSKQEYEEFKELTRKKQLELESELQSLQKANLNLENLLEATKVCKRQEVSQLNKLHAETLKIITTPTKAYQLCSRLVPKSSPEVGSFGFLCTESSSRLDNDILNEPVPPEMSEQALEAVSEELRTVQEQLSVLQVKLDEEERKNLKLQQNVDKLEHHSTQMQELFSSERSDWTKQQQEHVTQLSDLEKQLQDAQTKNEFLKCEVHDLRIVLNSADKELSLVKLEYSTFKENHEKELSQLSERHVQVQLQLDNARLENEKLLESQACLQDSYDNLQEVMKFEIDQLSKNLQNCKQENETLKSDLHNLVELFEAEKERNNKLSLQFEEDKENSSKEILKVLETVRQEKQKEMAKCEKQMAKIQKLEESLLATENVISSLEKSRESDKELVTNLMNQIQELRISIGEKSETIATLKQELQDINCKYNASLADKEESKELIRRQEVDILELKETLRLRILSEDIERDMLCEDLAHATEQLNMLTEASKKHSGLLQSAQEELTRKEALIQELQHKLNQEKEEVEQKKNEFSLKMRQLEHVMGSATEYPQSPKTPPHFQAHLAKLLETQEQEIEDGRASKTSLQHLVTKLNEDREVKNAEILRMKDQLCEMENLRLESQQLREKNWLLQRQLDDVKRQQESGDQSHPDSQQLKNEHEEIIKERLAKNKLIEEMLKMKTNLEEVQSALHSKEKACHRMSEEIERTRTLESRAFQEKEQLRSKLEEMYEERERTFLEMEMLKKQLEFLAEENGKLVGHQNLHQKIQYVVRLKKENIRLTEETEKLRAENLFLKEKKKEF | binds |
